Measurements from “University of Dundee, Small-Polar-MMV Screening Library” (2021), ChEMBL document CHEMBL3988442.

The filed quantity is “Percent Effect” (%).
The controls that fix the scale are not given in the record; negative values are as filed.
The compounds are a random part of those screened.
A dash means the value is not listed here; it may have been measured.

Mtb growth Cornell: 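Whole-cell assay for inhibitors of Mycobacterium tuberculosis growth, labelled Cornell in the record; the read-out is not stated. The concentration is filed as 10 mM, unlikely as a test dose, so the dose is not known. The record gives no direction; compounds strong in two other growth screens of this library score well above the rest, so higher reads as stronger inhibition. Of about 53,000 compounds tested this way, about 900 (1.7%) reached 50% or more in at least one test.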
Mtb heat-shock: 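Assay on Mycobacterium tuberculosis, filed only as a heat shock assay from Cornell; the read-out is not stated. The concentration is filed as 10 mM, unlikely as a test dose, so the dose is not known. Higher reads as stronger inhibition (inferred: compounds with an IC50 in retests scored well above the rest). About 69,000 compounds were tested under these conditions; 1.4% (about 930) showed 50% or more at least once.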

For COCC(=O)NCC[C@H]1CC(C)(C)Oc2ccccc21 the result was Mtb growth Cornell: 22.89%; Mtb heat-shock: 44.13%. O=C1NCCN1C1CCN(CCOc2ccccc2F)CC1 read Mtb heat-shock: -5.929%. Result for COc1cc2c(nn1)CCN(Cc1noc(CC(C)C)n1)C2 was Mtb heat-shock: 21.35%. With Cc1ccc(NC(=O)C2CSCN2C(=O)c2ccncc2)c(C)c1 (stereo not given) the screen gave Mtb heat-shock: 6.974%. For COCCNCc1cc2cc(C)cc(C)c2[nH]c1=O the result was Mtb growth Cornell: 8.162%; Mtb heat-shock: 13.84%. For CC(=O)N1CCC2(CC1)COC(COCc1ccccn1)C2.O=C(O)C(F)(F)F (stereo not given) the result was Mtb growth Cornell: 11.9%; Mtb heat-shock: -16.2%.

Result for Cc1nc(N2CCCC2)nc(C)c1NC(=O)c1ccco1 was Mtb growth Cornell: 16.45%; Mtb heat-shock: 10.97%. O=C(Cc1ccccc1O)NC1CCCN(c2ccccc2F)C1=O (stereo not given) gave Mtb growth Cornell: -20.99%; Mtb heat-shock: -35.47%. Result for COC(=O)NCc1ccc(NC(=O)CC2=CCCCC2)cc1 was Mtb growth Cornell: 8.09%; Mtb heat-shock: -2.449%. Result for Cc1ccc(C(=O)Nc2ccn(CCC(N)=O)n2)cc1 was Mtb growth Cornell: -1.383%; Mtb heat-shock: -0.7242%. With O=C(CCc1cccc(F)c1F)N1CCN(Cc2ccco2)CC1 the screen gave Mtb heat-shock: 33.54%. For O=C(c1ccco1)N1CCC(n2nc(-c3cccs3)ccc2=O)CC1 the result was Mtb growth Cornell: 40.49%; Mtb heat-shock: 4.61%.

CNC(=O)Cc1ccccc1NC(=O)C1CCCC1 gave Mtb growth Cornell: 0.7635%; Mtb heat-shock: 19.17%. CNc1ncc(CN(C)Cc2cc(O)c3cc(C)cc(C)c3n2)cn1 gave Mtb growth Cornell: 8.224%; Mtb heat-shock: -2.137%. CC(C)CN(C(=O)Nc1cccc(C(=O)N(C)C)c1)C1CC1 gave Mtb heat-shock: 7.664%. For CN(C1CCCCC1)S(=O)(=O)N1CCN(Cc2ccco2)CC1 the result was Mtb growth Cornell: 2.513%; Mtb heat-shock: -20.82%. For O=C(O)C(F)(F)F.[H][C@]12CCN(C(=O)c3ccncc3F)C[C@@]1([H])OCCN(c1ncccn1)C2 the result was Mtb growth Cornell: 33.91%; Mtb heat-shock: 4.121%. With CCCNC(=O)Cn1nc(C(C)C)c2cnn(C(C)(C)C)c2c1=O the screen gave Mtb growth Cornell: 12.37%; Mtb heat-shock: 4.107%.

CCOc1ccc(CCCC(=O)N2CC[C@H](NC(C)=O)C2)cc1C read Mtb growth Cornell: 39.76%; Mtb heat-shock: -1.416%. CC(C)Nc1ncccc1C(=O)NCc1cnc(N(C)C)n1C gave Mtb growth Cornell: 8.891%; Mtb heat-shock: -13.35%. O=C(O)C(F)(F)F.O=C(O)C(F)(F)F.[H][C@@]12CN(Cc3ccncc3)C[C@]1([H])C(=O)N(c1ccsc1)C2 gave Mtb growth Cornell: 17.57%; Mtb heat-shock: -28.65%. CC(C)(C)C(=O)NS(=O)(=O)c1ccc(F)cc1C(F)(F)F read Mtb growth Cornell: 31.3%; Mtb heat-shock: 2.956%. Cc1nc(Cn2cnc3c(c(Br)nn3C)c2=O)cs1 gave Mtb heat-shock: -17.08%. For O=C(NCN1CCc2ccccc2C1)c1cnccn1 the result was Mtb growth Cornell: -9.616%; Mtb heat-shock: 3.79%.

CN(CC(N)=O)C(=O)C1Cc2cc(Cl)ccc2O1 (stereo not given) gave Mtb growth Cornell: 34.12%; Mtb heat-shock: 4.23%. Result for N#Cc1cccnc1N1CCCN(C(=O)CCc2cccs2)CC1 was Mtb growth Cornell: -26.47%; Mtb heat-shock: 17.36%. Cc1cnc(NS(=O)(=O)c2ccccc2)s1 read Mtb growth Cornell: 18.01%; Mtb heat-shock: 4.612%. CC(C)NC(=O)CN(C)C(=O)c1csc(Cc2ccccc2F)n1 read Mtb growth Cornell: 16.56%; Mtb heat-shock: 9.446%. With O=C1CSc2ccc(C(=O)N3CCCC(n4ccnc4)C3)cc2N1 (stereo not given) the screen gave Mtb growth Cornell: -11.59%; Mtb heat-shock: -20.79%. Result for CCN(CC)c1ccc(NC(=O)NC(C)Cn2cccn2)cn1 (stereo not given) was Mtb growth Cornell: -29.36%; Mtb heat-shock: 35.11%.

Result for O=C1c2cnc(N3CCOCC3)nc2CN1c1ccc2c(c1)OCO2 was Mtb growth Cornell: 1.632%; Mtb heat-shock: -2.185%.

Some entries from above, unchanged:

Compound	Mtb growth Cornell	Mtb heat-shock
Cc1nc(Cn2cnc3c(c(Br)nn3C)c2=O)cs1	-	-17.08
COC(=O)NCc1ccc(NC(=O)CC2=CCCCC2)cc1	8.09	-2.449
O=C(NCN1CCc2ccccc2C1)c1cnccn1	-9.616	3.79